The list shows a part of the results.

The target of this assay is T1, OsSMF1 (Oryza sativa, UniProt Q6ZLB0 1-436).
T1 sequence: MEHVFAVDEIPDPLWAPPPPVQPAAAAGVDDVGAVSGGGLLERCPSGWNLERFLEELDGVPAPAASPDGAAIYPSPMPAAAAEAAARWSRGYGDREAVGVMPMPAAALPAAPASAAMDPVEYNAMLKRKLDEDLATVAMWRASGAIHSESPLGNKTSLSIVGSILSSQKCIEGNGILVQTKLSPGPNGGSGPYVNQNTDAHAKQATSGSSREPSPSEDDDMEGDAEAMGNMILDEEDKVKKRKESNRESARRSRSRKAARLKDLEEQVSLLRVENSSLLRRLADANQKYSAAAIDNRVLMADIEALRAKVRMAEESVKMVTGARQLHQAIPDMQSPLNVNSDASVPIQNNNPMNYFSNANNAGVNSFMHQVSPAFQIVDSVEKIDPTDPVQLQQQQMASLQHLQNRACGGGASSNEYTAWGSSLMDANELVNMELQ
In words: protein-binding microarray (RPBM); PBS, 2% BSA, 51.3 ng/ul salmon testes DNA, 50 uM zinc acetate, 200 nM TF, 25 C, 1 h; high values mean tight binding. To be noted: protein: recombinant; tags: N-terminal polyhistidine and DsRed monomer fusion (pET32a); chain copies: 2; label: CyDye5-dUTP incorporated in the synthesized complementary strand; 3' TTTTT single-stranded linker to array surface; dsDNA, one strand shown. The procedure, abridged: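 In PBS with 2% BSA, salmon testes DNA and 50 µM zinc acetate, 200 nM protein was incubated on a custom Agilent array at 25 °C for 1 h and then washed off. The array had been made double-stranded by primer extension with Cy5-dUTP and blocked with 2% BSA. The proteins were transcription factors fused N-terminally to polyhistidine and DsRed, expressed in E. coli BL21-CodonPlus and purified on Ni–NTA. The binding signal is per-feature fluorescence intensity (arbitrary units) from an Axon 4000B scanner.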
For “GGTCCCATGTCACCTACAGGTGAGGTCCAGGACCTTCGCACGGAGTCACCTAGTGCAG”, the binding signal is 3540 fluorescence intensity (a.u.).
As for “ACAGATACAATGAGCGAGCGTTTGGTGTAATATGTGACAGCGGAGTCACCTAGTGCAG”, the binding signal is 43600 fluorescence intensity (a.u.).
Then “CGAGCCAAAACCACGTAACAATCGCCCGCCCACGTCCCGTCGGAGTCACCTAGTGCAG”, with 5140 fluorescence intensity (a.u.).
As to “AGCTAGCTGAATCTCCGGAGTCCCGGACCGTTTCAGATAGCGGAGTCACCTAGTGCAG”, the binding signal is 12500 fluorescence intensity (a.u.).
On to “CCTTCCCATGCCCTAAAATATAAAAGATTTTAGACGGATGCGGAGTCACCTAGTGCAG”, for which the binding signal was 4120 fluorescence intensity (a.u.).
On to “GCGCAACTGGCAGATTCGTGGGGATTCGTGGGGATAATATCGGAGTCACCTAGTGCAG”, for which the binding signal is 4350 fluorescence intensity (a.u.).
Then “TGTTGCCTTGTAGATATACACACATCACTCCATGCATCTACGGAGTCACCTAGTGCAG”, with 3610 fluorescence intensity (a.u.).
As for “CATGGCTGTTTGGTTATAGGGACTAAAAGGGACTTAAGTTCGGAGTCACCTAGTGCAG”, the binding signal was 3350 fluorescence intensity (a.u.).
Then “GTGTGTCTGCGGACAGCACACAGCTGCGCATTTCGATGCGCGGAGTCACCTAGTGCAG”, with 38100 fluorescence intensity (a.u.); and “CCCTTCCGTGCCGCGTCGTGCCAGGGCCCGCGCCACGCCACGGAGTCACCTAGTGCAG”, with 31100 fluorescence intensity (a.u.); and “TCTGAGTGGACGATGATGGATGGCTAGTTCTGACTAGACGCGGAGTCACCTAGTGCAG”, with 5440 fluorescence intensity (a.u.).
Then “GGGAGAGGAGGAGAGGAGTTAGGTTAAATGGTCAGCACGACGGAGTCACCTAGTGCAG”, with 3980 fluorescence intensity (a.u.); and “GAGCAGAAAGACGCGGCTTCTCGAGAGTTCCAAGTTCCAACGGAGTCACCTAGTGCAG”, with 45200 fluorescence intensity (a.u.).
On to “GGGTTCTTCACCGATTACGCCAACCCCGCCACTACGCGGACGGAGTCACCTAGTGCAG”, for which the binding signal was 21900 fluorescence intensity (a.u.).
Then “TTGACCGGTGAGGTGACACCTAATCACCGGTAGTAGTACTCGGAGTCACCTAGTGCAG”, with 3310 fluorescence intensity (a.u.); and “CCCCGCCGTCTCCTCCGCCGCCGCCATGTGGGCGCTCCGCCGGAGTCACCTAGTGCAG”, with 3870 fluorescence intensity (a.u.).
For the sequence “TGGAAAACCACGATAGGCTCACAATACGACATACTATTGACGGAGTCACCTAGTGCAG”, the binding signal was 3870 fluorescence intensity (a.u.).
Consider “TTGGCACCATCGTCAAGAACCGCCGCCGCCGCTTCCGCTGCGGAGTCACCTAGTGCAG”, for which the binding signal is 20300 fluorescence intensity (a.u.).
Regarding “ACAGCCTACCTAGGGCAACGCCGCCACCGACACAGTCACACGGAGTCACCTAGTGCAG”, the binding signal was 5080 fluorescence intensity (a.u.).
Then “GTCGATCTCGGCCATCATGCGCTGGACCTCGTCGGCGGATCGGAGTCACCTAGTGCAG”, with 3380 fluorescence intensity (a.u.); and “TCCATCTCCAAGTCCGGTGACTCAGTAATCACTTCGCACACGGAGTCACCTAGTGCAG”, with 5560 fluorescence intensity (a.u.).
Take “GTACGTCTTAGAATGAACTTATTCCCCGTGTGGTACGACGCGGAGTCACCTAGTGCAG”: the binding signal is 9040 fluorescence intensity (a.u.).
Turning to “GATCGATGAATCTCATGTACTGACGCACGTGATCCAATTTCGGAGTCACCTAGTGCAG”, the binding signal was 4490 fluorescence intensity (a.u.).
As for “GTCGAGGAGCTGCAGGAGAGGGAGTCGCGCCTCCGGACCGCGGAGTCACCTAGTGCAG”, the binding signal is 25200 fluorescence intensity (a.u.).
As for “CTGCGCAGTGTGATCGATTAATCCCAATTCTCAAGCACGCCGGAGTCACCTAGTGCAG”, the binding signal was 5170 fluorescence intensity (a.u.).
As for “AGCGCAGCAAGGCGGCAGCCGATCCGACCAACTCACCACCCGGAGTCACCTAGTGCAG”, the binding signal was 3230 fluorescence intensity (a.u.).
Turning to “GCGGCTGGATTGTCGAGCGGTGAGGGTGACACGCATCTCCCGGAGTCACCTAGTGCAG”, the binding signal is 3190 fluorescence intensity (a.u.).
Then “CTAAACTTGTAGGTGTGTCACCTAGATTCATGAACTCTCACGGAGTCACCTAGTGCAG”, with 3570 fluorescence intensity (a.u.); and “CCTTTGTTATGATTATTACTAGTACGCGTCATGACAGAAGCGGAGTCACCTAGTGCAG”, with 5980 fluorescence intensity (a.u.).
Regarding “CAGTATCTTGGGATGGCAATTATTGGAACACAGTCATTTACGGAGTCACCTAGTGCAG”, the binding signal was 22300 fluorescence intensity (a.u.).
Then “ACTTTGCACAAGCGGGTACAAGCTCTGACGCACCTCCGAGCGGAGTCACCTAGTGCAG”, with 3820 fluorescence intensity (a.u.); and “AAACTCATCCACCGTGGACTGACGTGTGCACGATTAATCCCGGAGTCACCTAGTGCAG”, with 5710 fluorescence intensity (a.u.); and “CATTCTGGTTGTACCCTCATAATTTATTGGGGTGACGTGTCGGAGTCACCTAGTGCAG”, with 17700 fluorescence intensity (a.u.).
Consider “ACGAGGATGACTGGCTGACTGGTACTTTGCATCGGATCATCGGAGTCACCTAGTGCAG”, for which the binding signal was 3910 fluorescence intensity (a.u.).
Take “TTATTGTGCCACGTTATCTAGAACCGTCTTCAATATTGTCCGGAGTCACCTAGTGCAG”: the binding signal was 10100 fluorescence intensity (a.u.).
Then “AAATCCTTGGTGTAATGATGCTGAATCCAATCATTCGCTTCGGAGTCACCTAGTGCAG”, with 7000 fluorescence intensity (a.u.).
Take “GAGATTGGGGTTTTGATGACGGGGAATTGATCTCGATCGTCGGAGTCACCTAGTGCAG”: the binding signal is 6380 fluorescence intensity (a.u.).
As for “CCGGCCGTGCGCCGGGATCGCCATGAGGGACGTCCGGCTGCGGAGTCACCTAGTGCAG”, the binding signal was 26300 fluorescence intensity (a.u.).
Consider “ACGAATGGCGGCGGCTACGTGTCGGCGGTCGGGGACCCCGCGGAGTCACCTAGTGCAG”, for which the binding signal was 3460 fluorescence intensity (a.u.).
Then “TAGGAGTTGATGATGACTAATCTGACCATAATAAAGACTGCGGAGTCACCTAGTGCAG”, with 5150 fluorescence intensity (a.u.).
In the case of “ATACAAAGCAATATGATGCATCTATATATTGTTCATACATCGGAGTCACCTAGTGCAG”, the binding signal is 3810 fluorescence intensity (a.u.).
Then “CTTAATAGTCTCTGACAAAGCAATAAAATCAAGGTGATGTCGGAGTCACCTAGTGCAG”, with 4090 fluorescence intensity (a.u.).
